According to the supplement of paper PMC12823440, “Inhibitors supercharge kinase turnover through native proteolytic circuits” (Nature, 2025):
Some of the results follow. Hit calls seldom repeat between salt and free forms of one compound.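 Kinases were expressed as nanoluciferase fusions in K562 cells and luminescence was read every 4 h between 2 and 18 h as percent of control, DMSO set to 100% and a positive control to 0%. A time point counts as decreased when the signal drops significantly (2 sigma). The hit call is the authors' own, does not follow from the count of time points alone, and its rule is not shown.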

The chains behind the UniProt entries cited, without tags or fusion partners. Where a name states a change or a piece, a line headed by the entry shows the natural chain unless it says otherwise.
UniProt O75460: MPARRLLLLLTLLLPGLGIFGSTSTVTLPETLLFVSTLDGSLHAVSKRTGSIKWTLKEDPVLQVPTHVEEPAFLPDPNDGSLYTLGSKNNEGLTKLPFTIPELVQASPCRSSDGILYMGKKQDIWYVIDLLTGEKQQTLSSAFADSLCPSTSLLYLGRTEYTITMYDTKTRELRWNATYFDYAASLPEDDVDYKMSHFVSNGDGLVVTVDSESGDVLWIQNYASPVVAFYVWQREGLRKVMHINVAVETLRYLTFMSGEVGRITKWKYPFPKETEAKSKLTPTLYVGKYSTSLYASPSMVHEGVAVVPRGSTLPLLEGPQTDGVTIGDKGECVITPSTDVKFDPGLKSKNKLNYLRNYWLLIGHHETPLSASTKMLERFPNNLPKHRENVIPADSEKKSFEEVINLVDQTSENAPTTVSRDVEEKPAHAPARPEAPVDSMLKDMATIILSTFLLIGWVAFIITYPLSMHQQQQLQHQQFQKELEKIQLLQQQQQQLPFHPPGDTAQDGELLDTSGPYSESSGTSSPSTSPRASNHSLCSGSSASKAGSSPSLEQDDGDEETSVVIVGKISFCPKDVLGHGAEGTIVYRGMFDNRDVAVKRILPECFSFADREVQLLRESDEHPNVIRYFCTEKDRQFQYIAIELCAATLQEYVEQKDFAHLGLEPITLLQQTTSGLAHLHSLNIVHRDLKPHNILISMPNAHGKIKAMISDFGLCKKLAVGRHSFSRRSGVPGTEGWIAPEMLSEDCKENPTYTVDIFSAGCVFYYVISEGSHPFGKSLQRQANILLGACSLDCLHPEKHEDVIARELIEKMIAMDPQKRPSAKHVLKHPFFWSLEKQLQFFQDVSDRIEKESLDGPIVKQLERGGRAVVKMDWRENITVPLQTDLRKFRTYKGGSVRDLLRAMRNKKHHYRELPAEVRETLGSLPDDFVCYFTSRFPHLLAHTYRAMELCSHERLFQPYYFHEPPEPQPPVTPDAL
UniProt P21802, whole entry, looked up: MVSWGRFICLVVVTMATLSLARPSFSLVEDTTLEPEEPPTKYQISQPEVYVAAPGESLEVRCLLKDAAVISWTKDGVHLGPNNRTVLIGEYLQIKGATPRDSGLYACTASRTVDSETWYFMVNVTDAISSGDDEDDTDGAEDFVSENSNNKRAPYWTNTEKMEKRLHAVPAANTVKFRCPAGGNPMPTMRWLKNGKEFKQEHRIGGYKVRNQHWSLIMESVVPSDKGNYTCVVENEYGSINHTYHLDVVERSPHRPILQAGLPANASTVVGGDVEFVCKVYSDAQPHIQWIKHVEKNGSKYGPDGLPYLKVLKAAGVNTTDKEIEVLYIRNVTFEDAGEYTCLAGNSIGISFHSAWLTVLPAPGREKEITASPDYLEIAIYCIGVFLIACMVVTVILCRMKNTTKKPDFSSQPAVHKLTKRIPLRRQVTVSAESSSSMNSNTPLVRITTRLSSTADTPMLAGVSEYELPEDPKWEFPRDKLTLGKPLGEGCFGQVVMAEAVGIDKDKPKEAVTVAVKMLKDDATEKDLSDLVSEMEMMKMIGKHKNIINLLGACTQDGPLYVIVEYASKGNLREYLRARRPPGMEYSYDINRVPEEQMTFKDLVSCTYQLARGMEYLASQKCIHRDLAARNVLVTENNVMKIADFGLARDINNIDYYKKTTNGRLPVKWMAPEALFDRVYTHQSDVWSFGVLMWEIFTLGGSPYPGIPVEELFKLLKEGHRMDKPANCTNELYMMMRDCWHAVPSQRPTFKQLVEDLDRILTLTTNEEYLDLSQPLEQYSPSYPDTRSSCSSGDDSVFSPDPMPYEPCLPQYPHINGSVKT
UniProt P22607, whole entry, looked up: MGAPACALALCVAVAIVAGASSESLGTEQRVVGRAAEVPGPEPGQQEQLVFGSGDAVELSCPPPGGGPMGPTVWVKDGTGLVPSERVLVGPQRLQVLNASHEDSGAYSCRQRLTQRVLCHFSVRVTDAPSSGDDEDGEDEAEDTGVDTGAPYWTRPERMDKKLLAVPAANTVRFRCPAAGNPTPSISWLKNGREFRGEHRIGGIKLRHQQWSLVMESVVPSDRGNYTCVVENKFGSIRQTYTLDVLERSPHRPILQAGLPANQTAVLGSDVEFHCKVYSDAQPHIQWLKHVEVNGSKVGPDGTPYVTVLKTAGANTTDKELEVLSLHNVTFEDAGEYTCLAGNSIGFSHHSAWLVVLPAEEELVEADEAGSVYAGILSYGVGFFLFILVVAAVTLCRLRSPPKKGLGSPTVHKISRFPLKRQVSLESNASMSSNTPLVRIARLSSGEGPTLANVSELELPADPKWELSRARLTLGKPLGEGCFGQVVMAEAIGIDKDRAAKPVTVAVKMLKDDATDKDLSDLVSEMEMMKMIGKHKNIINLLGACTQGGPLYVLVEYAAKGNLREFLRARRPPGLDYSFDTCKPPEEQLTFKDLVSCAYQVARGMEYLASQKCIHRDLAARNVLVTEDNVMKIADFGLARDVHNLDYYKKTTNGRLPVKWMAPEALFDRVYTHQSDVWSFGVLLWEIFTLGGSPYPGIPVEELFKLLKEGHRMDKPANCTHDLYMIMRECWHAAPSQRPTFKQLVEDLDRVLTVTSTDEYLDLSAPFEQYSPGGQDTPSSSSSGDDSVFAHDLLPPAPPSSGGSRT
UniProt P36888, whole entry: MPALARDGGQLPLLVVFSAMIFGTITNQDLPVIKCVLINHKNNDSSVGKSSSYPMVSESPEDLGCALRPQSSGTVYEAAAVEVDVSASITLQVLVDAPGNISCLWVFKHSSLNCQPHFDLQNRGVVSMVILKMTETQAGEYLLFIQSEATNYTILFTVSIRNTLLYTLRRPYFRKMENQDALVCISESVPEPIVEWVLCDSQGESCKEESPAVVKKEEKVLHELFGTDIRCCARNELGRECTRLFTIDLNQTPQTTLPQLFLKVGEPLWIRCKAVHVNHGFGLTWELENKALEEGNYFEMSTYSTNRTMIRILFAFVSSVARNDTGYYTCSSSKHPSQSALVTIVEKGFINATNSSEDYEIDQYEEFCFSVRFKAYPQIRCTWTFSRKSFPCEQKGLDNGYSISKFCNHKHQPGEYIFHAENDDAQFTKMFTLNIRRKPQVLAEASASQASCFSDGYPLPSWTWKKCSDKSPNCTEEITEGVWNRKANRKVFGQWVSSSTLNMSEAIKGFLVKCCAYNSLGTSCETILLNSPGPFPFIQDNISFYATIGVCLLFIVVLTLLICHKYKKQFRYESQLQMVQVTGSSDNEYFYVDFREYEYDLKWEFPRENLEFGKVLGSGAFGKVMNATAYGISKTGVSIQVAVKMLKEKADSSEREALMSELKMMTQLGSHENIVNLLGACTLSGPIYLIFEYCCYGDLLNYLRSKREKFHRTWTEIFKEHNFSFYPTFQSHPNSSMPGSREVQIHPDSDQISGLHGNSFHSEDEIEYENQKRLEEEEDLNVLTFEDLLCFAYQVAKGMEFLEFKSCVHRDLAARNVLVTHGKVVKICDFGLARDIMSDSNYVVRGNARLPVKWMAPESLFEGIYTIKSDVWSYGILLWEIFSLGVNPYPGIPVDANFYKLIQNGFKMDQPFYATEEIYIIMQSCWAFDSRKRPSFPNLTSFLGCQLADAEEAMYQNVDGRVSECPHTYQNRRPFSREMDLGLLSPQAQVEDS
UniProt P06241, whole entry, looked up: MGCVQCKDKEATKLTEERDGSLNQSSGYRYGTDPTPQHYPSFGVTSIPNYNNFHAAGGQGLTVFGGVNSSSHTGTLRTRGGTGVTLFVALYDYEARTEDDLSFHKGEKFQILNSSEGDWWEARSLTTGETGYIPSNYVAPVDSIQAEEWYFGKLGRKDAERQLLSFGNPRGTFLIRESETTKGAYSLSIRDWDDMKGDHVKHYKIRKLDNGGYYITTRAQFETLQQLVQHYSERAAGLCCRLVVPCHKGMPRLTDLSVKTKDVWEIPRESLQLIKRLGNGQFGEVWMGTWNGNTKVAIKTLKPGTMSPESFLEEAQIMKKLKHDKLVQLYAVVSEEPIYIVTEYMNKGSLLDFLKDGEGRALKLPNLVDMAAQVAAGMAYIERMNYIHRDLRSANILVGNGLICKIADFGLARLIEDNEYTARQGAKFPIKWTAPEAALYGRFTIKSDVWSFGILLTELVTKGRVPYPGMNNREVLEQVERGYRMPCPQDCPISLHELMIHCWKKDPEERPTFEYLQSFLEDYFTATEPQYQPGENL
UniProt P49840: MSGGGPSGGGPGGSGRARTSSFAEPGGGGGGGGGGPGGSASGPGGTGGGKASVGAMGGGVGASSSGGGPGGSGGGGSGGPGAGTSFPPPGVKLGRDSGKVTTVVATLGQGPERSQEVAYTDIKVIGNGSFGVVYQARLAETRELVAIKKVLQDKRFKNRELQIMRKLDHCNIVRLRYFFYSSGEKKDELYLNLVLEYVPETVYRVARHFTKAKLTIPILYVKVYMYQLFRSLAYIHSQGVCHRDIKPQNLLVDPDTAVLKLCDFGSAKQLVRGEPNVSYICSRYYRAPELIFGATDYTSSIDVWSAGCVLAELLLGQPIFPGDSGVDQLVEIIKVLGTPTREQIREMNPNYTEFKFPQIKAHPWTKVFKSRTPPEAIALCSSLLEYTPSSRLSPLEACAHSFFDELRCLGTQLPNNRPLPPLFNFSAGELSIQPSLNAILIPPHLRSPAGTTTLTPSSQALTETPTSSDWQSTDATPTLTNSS
UniProt P14616: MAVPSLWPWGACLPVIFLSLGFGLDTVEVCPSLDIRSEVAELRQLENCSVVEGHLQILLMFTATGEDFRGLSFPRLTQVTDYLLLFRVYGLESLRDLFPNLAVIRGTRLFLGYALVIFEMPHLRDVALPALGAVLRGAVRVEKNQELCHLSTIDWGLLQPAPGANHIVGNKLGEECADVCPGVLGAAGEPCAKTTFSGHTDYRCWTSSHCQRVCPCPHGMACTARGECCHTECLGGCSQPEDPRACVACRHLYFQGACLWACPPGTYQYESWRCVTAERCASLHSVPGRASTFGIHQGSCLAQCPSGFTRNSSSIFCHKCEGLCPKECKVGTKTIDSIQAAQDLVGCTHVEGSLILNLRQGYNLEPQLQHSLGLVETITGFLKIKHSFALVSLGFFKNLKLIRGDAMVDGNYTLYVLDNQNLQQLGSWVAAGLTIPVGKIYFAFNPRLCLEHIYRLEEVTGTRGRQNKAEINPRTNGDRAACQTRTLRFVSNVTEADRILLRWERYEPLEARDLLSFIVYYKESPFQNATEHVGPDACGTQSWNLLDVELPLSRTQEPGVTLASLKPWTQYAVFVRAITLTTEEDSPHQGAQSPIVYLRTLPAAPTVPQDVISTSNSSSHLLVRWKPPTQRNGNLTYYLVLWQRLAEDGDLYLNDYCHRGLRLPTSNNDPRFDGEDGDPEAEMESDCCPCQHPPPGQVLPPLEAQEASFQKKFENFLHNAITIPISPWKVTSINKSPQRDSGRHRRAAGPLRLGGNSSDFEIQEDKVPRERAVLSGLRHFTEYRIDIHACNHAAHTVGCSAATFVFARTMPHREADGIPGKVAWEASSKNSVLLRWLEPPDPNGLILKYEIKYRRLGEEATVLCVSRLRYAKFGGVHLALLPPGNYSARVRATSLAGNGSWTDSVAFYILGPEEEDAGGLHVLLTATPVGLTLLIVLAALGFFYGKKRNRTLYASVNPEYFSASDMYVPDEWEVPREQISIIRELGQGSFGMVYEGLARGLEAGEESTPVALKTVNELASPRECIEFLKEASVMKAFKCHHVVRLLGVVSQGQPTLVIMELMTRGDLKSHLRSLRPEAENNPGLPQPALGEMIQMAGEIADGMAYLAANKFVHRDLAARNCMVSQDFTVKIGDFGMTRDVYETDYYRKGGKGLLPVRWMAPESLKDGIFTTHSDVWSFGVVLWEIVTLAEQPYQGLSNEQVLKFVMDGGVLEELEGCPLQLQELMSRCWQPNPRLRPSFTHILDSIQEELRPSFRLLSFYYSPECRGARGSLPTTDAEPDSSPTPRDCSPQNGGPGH

Key:
Assay in all cases: kinase-Nluc reporter destabilization hit call (1 = scored as downregulated) (binary); higher = compound decreases kinase abundance
Settings in all cases: K562; 2-18 h
[1] = biological target: ERN1 (UniProt O75460)
[2] = biological target: FGFR1 (UniProt P11362)
[3] = biological target: FGFR2 (UniProt P21802)
[4] = biological target: FGFR3 (UniProt P22607)
[5] = biological target: FGR (UniProt P09769)
[6] = biological target: FLT3 (UniProt P36888)
[7] = biological target: FYN (UniProt P06241)
[8] = biological target: GSK3A (UniProt P49840)
[9] = biological target: HER2 (UniProt P04626)
[10] = biological target: INSRR (UniProt P14616)

SMILES | kinase-Nluc reporter destabilization hit call [1] | kinase-Nluc reporter destabilization hit call [2] | kinase-Nluc reporter destabilization hit call [3] | kinase-Nluc reporter destabilization hit call [4] | kinase-Nluc reporter destabilization hit call [5] | kinase-Nluc reporter destabilization hit call [6] | kinase-Nluc reporter destabilization hit call [7] | kinase-Nluc reporter destabilization hit call [8] | kinase-Nluc reporter destabilization hit call [9] | kinase-Nluc reporter destabilization hit call [10]
C=CC(=O)N1CCC[C@@H](n2nc(-c3ccc(Oc4ccccc4)cc3)c(C(N)=O)c2N)C1 [Btk inhibitor 2] (10 µM) | inactive: 0 | inactive: 0 | inactive: 0 | inactive: 0 | inactive: 0 | inactive: 0 | inactive: 0 | inactive: 0 | inactive: 0 | inactive: 0
CN1CCN(S(=O)(=O)c2ccc(-c3cnc(N)c(C(=O)Nc4cccnc4)n3)cc2)CC1 (10 µM) | inactive: 0 | inactive: 0 | inactive: 0 | inactive: 0 | inactive: 0 | inactive: 0 | inactive: 0 | inactive: 0 | inactive: 0 | inactive: 0
COc1c(CC=C(C)C)c(O)cc2oc(=O)c(-c3ccc(O)cc3O)cc12 [Glycycoumarin] (10 µM) | inactive: 0 | inactive: 0 | inactive: 0 | inactive: 0 | inactive: 0 | inactive: 0 | inactive: 0 | inactive: 0 | inactive: 0 | inactive: 0
Cc1cccc([C@@H](CO)NC(=O)[C@@H](C)N2Cc3ccc(-c4nc(NC5CCOCC5)ncc4Cl)cc3C2=O)c1 [ERK1/2 inhibitor 1] (10 µM) | inactive: 0 | inactive: 0 | inactive: 0 | inactive: 0 | inactive: 0 | inactive: 0 | inactive: 0 | inactive: 0 | inactive: 0 | inactive: 0
CCN(CCO)CCCOc1ccc2c(Nc3cc(CC(=O)Nc4cccc(F)c4)[nH]n3)ncnc2c1 [Barasertib-HQPA] (10 µM) | inactive: 0 | inactive: 0 | inactive: 0 | inactive: 0 | inactive: 0 | inactive: 0 | inactive: 0 | inactive: 0 | inactive: 0 | inactive: 0
NC(=O)c1ccc2nc(-c3ccc(Oc4ccc(Cl)cc4)cc3)[nH]c2c1 (10 µM) | inactive: 0 | inactive: 0 | inactive: 0 | inactive: 0 | inactive: 0 | inactive: 0 | inactive: 0 | inactive: 0 | inactive: 0 | inactive: 0
CN(C)Cc1ccc(-c2cnn3c(-c4cccc(NC(=O)c5cccc(C(F)(F)F)c5)c4)ccnc23)cc1 (2.5 µM) | inactive: 0 | inactive: 0 | inactive: 0 | inactive: 0 | inactive: 0 | inactive: 0 | inactive: 0 | inactive: 0 | active: 1 | inactive: 0
C[C@H](NC(=O)/C(C#N)=C/c1cccc(Br)n1)c1ccccc1 (2.5 µM) | inactive: 0 | inactive: 0 | inactive: 0 | inactive: 0 | inactive: 0 | inactive: 0 | inactive: 0 | inactive: 0 | inactive: 0 | inactive: 0
COc1ccc2c(C(=O)Nc3ccc(NC(=O)c4nn(C5CCN(C(=O)CC(C)(C)C#N)CC5)c5ccc(F)cc45)cc3Cl)cnn2c1 [Src Inhibitor 3] (2.5 µM) | inactive: 0 | inactive: 0 | inactive: 0 | inactive: 0 | inactive: 0 | inactive: 0 | inactive: 0 | inactive: 0 | inactive: 0 | inactive: 0
Cc1ncc(-c2ccnc(Nc3ccc(S(C)(=O)=O)cc3)n2)n1C(C)C (2.5 µM) | inactive: 0 | inactive: 0 | inactive: 0 | inactive: 0 | inactive: 0 | inactive: 0 | inactive: 0 | inactive: 0 | inactive: 0 | inactive: 0
CCn1c(=O)c2cc(C(N)=O)c(N)nc2n(C2CC2)c1=O (10 µM) | inactive: 0 | inactive: 0 | inactive: 0 | inactive: 0 | inactive: 0 | inactive: 0 | inactive: 0 | inactive: 0 | inactive: 0 | inactive: 0
CCCn1cnc2c(NCc3ccccc3)nc(NC(CC)CO)nc21 (stereo not given) [Ca2+ channel agonist 1] (2.5 µM) | inactive: 0 | inactive: 0 | inactive: 0 | inactive: 0 | inactive: 0 | inactive: 0 | inactive: 0 | inactive: 0 | inactive: 0 | inactive: 0
COc1cc(C)c(Sc2cnc(NC(=O)c3ccc(CNC(C)C(C)(C)C)cc3)s2)cc1C(=O)N1CCN(C(C)=O)CC1 (stereo not given) (2.5 µM) | inactive: 0 | inactive: 0 | inactive: 0 | inactive: 0 | inactive: 0 | inactive: 0 | inactive: 0 | inactive: 0 | inactive: 0 | inactive: 0
O=c1oc2c(O)c(O)cc3c(=O)oc4c(O)c(O)cc1c4c23 [Ellagic acid] (10 µM) | inactive: 0 | inactive: 0 | inactive: 0 | inactive: 0 | inactive: 0 | inactive: 0 | inactive: 0 | inactive: 0 | inactive: 0 | inactive: 0
CCCCOc1c(C(=O)c2c(F)cc(C)cc2F)c[nH]c2nncc1-2 (10 µM) | inactive: 0 | inactive: 0 | inactive: 0 | inactive: 0 | inactive: 0 | inactive: 0 | inactive: 0 | inactive: 0 | inactive: 0 | inactive: 0
Cc1c(NC(=O)c2cc3c(s2)CCCC3)cccc1-c1cn(C)c(=O)c(Nc2ccc([C@@H]3C(=O)N(C)CCN3C)cc2)n1 (10 µM) | inactive: 0 | inactive: 0 | inactive: 0 | inactive: 0 | inactive: 0 | inactive: 0 | inactive: 0 | inactive: 0 | inactive: 0 | inactive: 0
CC(C)(/C=C(\C#N)C(=O)N1CCC[C@@H](n2nc(-c3ccc(Oc4ccccc4)cc3F)c3c(N)ncnc32)C1)N1CCN(C2COC2)CC1 (2.5 µM) | inactive: 0 | inactive: 0 | inactive: 0 | inactive: 0 | inactive: 0 | inactive: 0 | inactive: 0 | inactive: 0 | inactive: 0 | inactive: 0
COc1cc2nc(C)nc(N[C@H](C)c3cc(N)cc(C(F)(F)F)c3)c2cc1O[C@H]1CCOC1 (10 µM) | inactive: 0 | inactive: 0 | inactive: 0 | inactive: 0 | inactive: 0 | inactive: 0 | inactive: 0 | inactive: 0 | inactive: 0 | inactive: 0
C=CC(=O)Nc1ccc2ncnc(Nc3cccc(Br)c3)c2c1 (10 µM) | inactive: 0 | inactive: 0 | inactive: 0 | inactive: 0 | inactive: 0 | inactive: 0 | inactive: 0 | inactive: 0 | inactive: 0 | inactive: 0
COc1cc(F)cc([C@@H](CO)NC(=O)[C@@H](C)N2Cc3ccc(-c4nc(NC5CCOCC5)ncc4Cl)cc3C2=O)c1 [ERK1/2 inhibitor 2] (10 µM) | inactive: 0 | inactive: 0 | inactive: 0 | inactive: 0 | inactive: 0 | inactive: 0 | inactive: 0 | inactive: 0 | inactive: 0 | inactive: 0
O=C(Nc1cc(C(F)(F)F)ccc1N1CCN(Cc2ccccn2)CC1)c1ccc(-c2ccncc2)o1 (10 µM) | inactive: 0 | inactive: 0 | inactive: 0 | inactive: 0 | inactive: 0 | inactive: 0 | inactive: 0 | inactive: 0 | active: 1 | inactive: 0
CCOc1cc2ncc(C#N)c(Nc3ccc(OCc4ccccn4)c(Cl)c3)c2cc1NC(=O)/C=C/CN(C)C [Neratinib] (10 µM) | inactive: 0 | inactive: 0 | inactive: 0 | inactive: 0 | inactive: 0 | inactive: 0 | inactive: 0 | inactive: 0 | active: 1 | inactive: 0
Cc1ccc2c(Nc3ccc(Cl)cc3)nccc2c1Nc1ncccc1-c1ncnc2nc[nH]c12 [Raf inhibitor 1] (2.5 µM) | inactive: 0 | inactive: 0 | inactive: 0 | inactive: 0 | inactive: 0 | inactive: 0 | inactive: 0 | inactive: 0 | inactive: 0 | inactive: 0
CC1(C)CC=C(c2nc(C3CC(C)(C)OC(C)(C)C3)ccc2NC(=O)c2nc(C#N)c[nH]2)CC1 [Edicotinib] (2.5 µM) | inactive: 0 | inactive: 0 | inactive: 0 | inactive: 0 | inactive: 0 | inactive: 0 | inactive: 0 | inactive: 0 | inactive: 0 | inactive: 0
COc1ccc(NC(=O)N2CCN(c3nc(N)nc4c3cnn4C)[C@@H](C)C2)c(C)c1 (10 µM) | inactive: 0 | inactive: 0 | inactive: 0 | inactive: 0 | inactive: 0 | inactive: 0 | inactive: 0 | inactive: 0 | inactive: 0 | inactive: 0
COc1cc2c(Nc3ccc(Br)cc3F)ncnc2cc1OCCn1ccnn1 (10 µM) | inactive: 0 | inactive: 0 | inactive: 0 | inactive: 0 | inactive: 0 | inactive: 0 | inactive: 0 | inactive: 0 | inactive: 0 | inactive: 0
O=C([O-])c1ccccc1O.[Na+] [Sodium Salicylate] (10 µM) | inactive: 0 | inactive: 0 | inactive: 0 | inactive: 0 | inactive: 0 | inactive: 0 | inactive: 0 | inactive: 0 | inactive: 0 | inactive: 0
CC(C)Oc1cc(Nc2nc(N[C@@H](C)c3ccc(F)cn3)ncc2Cl)n[nH]1 (10 µM) | inactive: 0 | inactive: 0 | inactive: 0 | inactive: 0 | inactive: 0 | inactive: 0 | inactive: 0 | inactive: 0 | inactive: 0 | inactive: 0
Cc1ccc(F)c(NC(=O)Nc2ccc(-c3cccc4[nH]nc(N)c34)cc2)c1 [Linifanib] (2.5 µM) | inactive: 0 | active: 1 | inactive: 0 | inactive: 0 | inactive: 0 | inactive: 0 | inactive: 0 | inactive: 0 | inactive: 0 | inactive: 0

Single records (already shown). Values in the order: kinase-Nluc reporter destabilization hit call [1]	kinase-Nluc reporter destabilization hit call [2]	kinase-Nluc reporter destabilization hit call [3]	kinase-Nluc reporter destabilization hit call [4]	kinase-Nluc reporter destabilization hit call [5]	kinase-Nluc reporter destabilization hit call [6]	kinase-Nluc reporter destabilization hit call [7]	kinase-Nluc reporter destabilization hit call [8]	kinase-Nluc reporter destabilization hit call [9]	kinase-Nluc reporter destabilization hit call [10]
`CCn1c(=O)c2cc(C(N)=O)c(N)nc2n(C2CC2)c1=O` (10 µM) in the list: inactive: 0	inactive: 0	inactive: 0	inactive: 0	inactive: 0	inactive: 0	inactive: 0	inactive: 0	inactive: 0	inactive: 0
`CC(C)(/C=C(\C#N)C(=O)N1CCC[C@@H](n2nc(-c3ccc(Oc4ccccc4)cc3F)c3c(N)ncnc32)C1)N1CCN(C2COC2)CC1` (2.5 µM) in the list: inactive: 0	inactive: 0	inactive: 0	inactive: 0	inactive: 0	inactive: 0	inactive: 0	inactive: 0	inactive: 0	inactive: 0
